Among all 320,000 compounds or so, about 22,000 (6.9%) were called active. This list was built around the results that the source calls inconclusive (neither active nor inactive); the mix of calls is not that of the screen. The call rests on the fitted dose curve; in most records, active means well fitted inhibition curve with a large enough effect; inconclusive means small, poorly fitted or top-dose-only effect, or another doubt; inactive means no such curve, though single readings can be large or run the other way. Potencies beside an inconclusive call are fits to weak or partial responses and may not hold up.
Experiment: Primary qHTS for delayed death inhibitors of the malarial parasite plastid, 96 hour incubation
Details: P. falciparum luciferase reporter growth; series mostly up to 28.7 µM; activity change, negative = inhibition: at the top concentration
Outline: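 P. falciparum expressing integrated firefly luciferase, in erythrocytes at 2% hematocrit, 0.05% parasitemia, incubated with compounds 96 h at 37 C, 5% CO2. Growth inhibition read as loss of luminescence; two-generation exposure targets delayed-death apicoplast inhibitors.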
On the % scale 0 is the no-effect control and ±100 the full control effect; potency means the concentration at half of the fitted maximal effect.

SMILES | Potency | activity change, negative = inhibition
CN=C1SC(CC(=O)Nc2ccc(F)cc2F)C(=O)N1/N=C(\C)c1cccc(OCC(=O)O)c1 (centres undefined) | inconclusive: 0.465 µM [inhibitor, full curve, poor fit] | 
O=[N+]([O-])c1cccc(S(=O)(=O)N2CCCCC2)c1 | inconclusive: 2.08 µM [inhibitor, single point] | 
O=C(CN(C(=O)c1cccc([N+](=O)[O-])c1)C1CCCCC1)Nc1ccc(Cl)c([N+](=O)[O-])c1 | inconclusive: 10.4 µM [inhibitor, partial curve, poor fit] | 
Cc1cn(C2CC(OC(=O)C(C)C)C(CO)O2)c(=O)[nH]c1=O (centres undefined) |  | inactive: -10.4%
COCCCNC(=O)/C(C#N)=c1\s/c(=C\c2ccccc2OC(F)F)c(=O)n1CCCOC | inconclusive: 18.5 µM [inhibitor, single point] | 
CCOC(=O)c1ccc(NC(=O)NCCc2cnc[nH]2)cc1 | inconclusive: 0.0329 µM [inhibitor, full curve, poor fit] | 
CC1CCN(S(=O)(=O)c2ccc3[nH]c(=O)ccc3c2)CC1 | inconclusive: 11.7 µM [inhibitor, single point] | 
OCC1(CCOc2ccccc2)CCN(Cc2cn[nH]c2-c2ccccc2)CC1 | inconclusive: 11.7 µM [inhibitor, single point] | 
Cc1ccc2c(c1)c(N=NC(N)=O)c(O)n2C |  | inactive: 0%
CC(O)(c1ccccc1)C(c1ccccc1)C1CCCCN1 (centres undefined) | inconclusive: 4.65 µM [inhibitor, partial curve] | 
CS(=O)(=O)c1cnc2c(-c3ccc(F)cc3)cnn2c1N |  | inactive: 188%
CC(C)(C)NC(=S)N/N=C\c1ccc(-c2ccc([N+](=O)[O-])cc2)o1 | active: 3.7 µM | 
CCOC(=O)c1cnc(-n2nc(C)cc2C)nc1NCCc1ccccc1 |  | inactive: -8.94%
CCOc1cc(C(=O)NC(C)CCc2ccccc2)cc(OCC)c1OCC (centres undefined) | inconclusive: 13.1 µM [inhibitor, single point] | 
O=C(Nc1cccc(S(=O)(=O)N2CCCC2)c1)c1cccc(OC(F)F)c1 | active: 9.28 µM | 
CC1CCN(C(=O)COc2cccc3c2CCN(C)C3=O)CC1 | inconclusive: 4.15 µM [inhibitor, single point] | 
CCc1cc(C(=O)N(CC)CC(=O)Nc2ccc(OC)cc2)sc1C | inconclusive: 9.28 µM [inhibitor, partial curve, poor fit] | 
Cc1ccc(Cl)cc1N1CCN(C(=O)C2CCC(=O)N(C3CCCCCC3)C2)CC1 (centres undefined) | inconclusive: 5.86 µM [inhibitor, partial curve, poor fit] | 
CCOC(=O)C1CCN(CC(=O)Nc2c(C(=O)OC)[nH]c3cccc(C)c23)CC1 | inconclusive: 10.4 µM [inhibitor, single point] | 
CC(O)c1nc2cc([N+](=O)[O-])ccc2n1Cc1ccccc1 (centres undefined) |  | inactive: -13.9%
O=C(NCc1ccco1)c1ccc(Cl)c(S(=O)(=O)N2CCc3ccccc32)c1 | inconclusive: 5.22 µM [inhibitor, partial curve] | 
C=CCN1C(=O)c2ccccc2Sc2ccc(C(=O)NCCC)cc21 |  | inactive: 8.33%

SMILES | Potency | activity change, negative = inhibition
O=C(c1ccc(-n2cncn2)c([N+](=O)[O-])c1)N1CCN(S(=O)(=O)c2cccc(F)c2)CC1 | inconclusive: 10.4 µM [inhibitor, single point] | 
C=CCNC(=S)N1CCN(CCNC2=CC(=O)CC(C)(C)C2)CC1 | inconclusive: 11.7 µM [inhibitor, single point] | 
Cc1ccc2c(c1)C(O)(CC(=O)c1cccnc1)C(=O)N2 (centres undefined) | inconclusive: 13.1 µM [inhibitor, single point] | 
CCCC(=O)N(c1ccccc1)C1C=CS(=O)(=O)C1 (centres undefined) | inconclusive: 10.4 µM [inhibitor, single point] | 
CC1CN(CC(=O)NN=C(c2ccccc2)c2ccccc2)CC(C)O1 (centres undefined) |  | inactive: -17.9%
Cc1c(NC(=O)c2ccc(Cl)s2)c(=O)n(-c2ccccc2)n1C | inconclusive: 18.5 µM [inhibitor, single point] | 
COc1ccc(S(=O)(=O)NCCSCc2ccco2)cc1OC | inconclusive: 9.28 µM [inhibitor, single point] | 
O=C(CN1C(=O)c2cccc3cccc1c23)NCc1ccccn1 | inconclusive: 18.5 µM [inhibitor, single point] | 
NS(=O)(=O)c1cc(C(=O)OCC(=O)c2ccccc2)c(Cl)cc1Cl |  | inactive: 43.6%
O=C(O)/C(=C/c1ccco1)NC(=O)c1ccc(Br)o1 | active: 13.1 µM | 
CCC(=Nc1ccccc1OC)C1=C(O)CC(c2ccccc2)CC1=O (centres undefined) | active: 0.415 µM | 
O=C(Nc1ccc2c(c1)OCO2)c1c(Cl)nc2sccn12 |  | inactive: 156%
Cc1cc(O)c(C(C)C)cc1N=Cc1cc([N+](=O)[O-])ccc1O | inconclusive: 14.7 µM [inhibitor, single point] | 
COc1ccc(CNC(=O)c2c(N)n(CCCN3CCOCC3)c3nc4ccccc4nc23)cc1 | inconclusive: 18.5 µM [inhibitor, single point] | 
Cc1ccc(-c2cc(Cc3ccc(F)cc3)c(=O)[nH]n2)cc1 |  | inactive: 27.1%
c1ccc(OCCN2CCN(Cc3nc(-c4ccc5c(c4)OCO5)no3)CC2)cc1 | active: 14.7 µM | 
CC(Oc1ccc(Br)cc1Br)C(=O)Nc1cccnc1Cl (centres undefined) | inconclusive: 18.5 µM [inhibitor, single point] | 
COc1ccc(NC(=O)/C(C#N)=C/c2c(C)nn(-c3ccc(F)cc3)c2Cl)cc1OC | inconclusive: 20.8 µM [inhibitor, partial curve, poor fit] | 
O=C1N(Cc2ccccc2)c2ccc(Cl)cc2C12OCCO2 | inconclusive: 0.0329 µM [inhibitor, full curve, poor fit] | 
COc1cccc(CN(C)CC(O)COc2cc(Cl)ccc2Cl)c1 (centres undefined) | inconclusive: 4.15 µM [inhibitor, partial curve] | 
CC(=O)c1ccc(N2CCN(S(=O)(=O)c3cn(C)cn3)CC2)cc1 | inconclusive: 2.62 µM [inhibitor, full curve] | 
COc1cccc(-c2cccc(NC(=O)C3CCN(Cc4nccs4)CC3)c2)c1 | inconclusive: 18.5 µM [inhibitor, single point] | 

Quoted at random: 3 compounds from above
SMILES | Potency | activity change, negative = inhibition
O=C(NCc1ccco1)c1ccc(Cl)c(S(=O)(=O)N2CCc3ccccc32)c1 | inconclusive: 5.22 µM [inhibitor, partial curve] | 
CC(=O)c1ccc(N2CCN(S(=O)(=O)c3cn(C)cn3)CC2)cc1 | inconclusive: 2.62 µM [inhibitor, full curve] | 
c1ccc(OCCN2CCN(Cc3nc(-c4ccc5c(c4)OCO5)no3)CC2)cc1 | active: 14.7 µM | 

Source: PubChem BioAssay AID504834 (National Center for Advancing Translational Sciences (NCATS), 2011)
